Article PMC10575729

Protein sequences, listed by entry. Tags and fused reporters are not part of them.
UniProt Q9H4Z3: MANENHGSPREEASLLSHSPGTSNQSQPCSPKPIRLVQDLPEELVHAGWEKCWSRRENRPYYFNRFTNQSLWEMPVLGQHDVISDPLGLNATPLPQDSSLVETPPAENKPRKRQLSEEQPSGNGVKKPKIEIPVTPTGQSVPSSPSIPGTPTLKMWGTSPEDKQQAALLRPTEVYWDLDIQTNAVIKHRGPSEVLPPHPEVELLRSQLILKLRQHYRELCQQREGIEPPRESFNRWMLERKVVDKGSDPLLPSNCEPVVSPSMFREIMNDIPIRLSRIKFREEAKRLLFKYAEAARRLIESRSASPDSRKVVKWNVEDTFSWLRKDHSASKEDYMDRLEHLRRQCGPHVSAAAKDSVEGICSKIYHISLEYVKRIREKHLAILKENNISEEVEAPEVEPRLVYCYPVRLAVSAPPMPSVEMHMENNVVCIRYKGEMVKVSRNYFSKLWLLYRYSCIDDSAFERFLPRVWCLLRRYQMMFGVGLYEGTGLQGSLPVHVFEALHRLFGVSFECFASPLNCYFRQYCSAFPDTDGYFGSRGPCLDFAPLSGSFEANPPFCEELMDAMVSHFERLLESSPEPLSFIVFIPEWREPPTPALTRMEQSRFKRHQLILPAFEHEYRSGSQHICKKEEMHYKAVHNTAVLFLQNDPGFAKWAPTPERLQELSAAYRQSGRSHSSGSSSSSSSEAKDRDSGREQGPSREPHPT

Biological target: Phosphorylated RNA polymerase II CTD-interacting factor 1 (PCIF1), endogenous (human (endogenous in SCC25)) (UniProt Q9H4Z3)
Assay: affinity purification with mass spectrometry; endogenous PCIF1 precipitated with a specific antibody from SCC25 cells, replicates, IgG control; MS-iTRAQ / LC-MS/MS of gel bands

binding: binds
Substance: C-terminal binding protein 2 (CTBP2), endogenous (from UniProt P56545 1-445)

No constants are given. Whether binding was seen depends on the method and setting. Binding seen in cells or lysates may run through a third protein. These calls come from enrichment with a bait or labelling near it, and not all partners need be listed.
